Data from paper PMC5341950, “Antitumor activity of a novel anti-vascular endothelial growth factor receptor-1 monoclonal antibody that does not interfere with ligand binding” (Oncotarget, 2016).

Chains of the proteins cited; added tags and fusions are not shown. Lines headed by an entry give the natural chain unless they say otherwise; changes in a name come on top. Residues count along the entry.
UniProt P17948, residues 27-758: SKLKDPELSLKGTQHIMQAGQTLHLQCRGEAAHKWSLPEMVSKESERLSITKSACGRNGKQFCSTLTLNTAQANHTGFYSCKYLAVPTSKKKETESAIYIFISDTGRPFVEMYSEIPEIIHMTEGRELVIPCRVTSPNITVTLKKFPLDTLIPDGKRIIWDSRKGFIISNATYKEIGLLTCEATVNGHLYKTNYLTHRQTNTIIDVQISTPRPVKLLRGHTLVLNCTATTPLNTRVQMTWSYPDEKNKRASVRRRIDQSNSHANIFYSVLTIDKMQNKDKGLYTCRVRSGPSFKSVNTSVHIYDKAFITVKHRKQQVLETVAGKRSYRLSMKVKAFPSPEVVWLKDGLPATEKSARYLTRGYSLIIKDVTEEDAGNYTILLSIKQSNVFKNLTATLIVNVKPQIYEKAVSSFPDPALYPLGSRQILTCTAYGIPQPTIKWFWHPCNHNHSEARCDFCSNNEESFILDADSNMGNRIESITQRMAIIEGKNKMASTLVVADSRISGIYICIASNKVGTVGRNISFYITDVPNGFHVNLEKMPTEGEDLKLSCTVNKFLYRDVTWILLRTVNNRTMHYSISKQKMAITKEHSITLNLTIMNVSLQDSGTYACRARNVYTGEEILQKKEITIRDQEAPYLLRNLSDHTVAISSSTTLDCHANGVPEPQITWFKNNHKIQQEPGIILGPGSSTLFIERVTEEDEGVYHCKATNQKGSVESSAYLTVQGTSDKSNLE

Target: T1, recombinant VEGFR-1/Fc chimera (UniProt P17948 27-758)
T1 construct: Vascular endothelial growth factor receptor-1 (VEGFR-1), extracellular region, fused with the Fc region of human immunoglobulins; Bought chimera; source: bought: R&D Systems
Assay: ELISA; 96-well Maxisorp plates coated with 10 ug/ml VEGFR-1/Fc chimera in PBS, blocked with 3% BSA in PBS; 50 ng/ml PlGF or VEGF-A in blocking buffer, 2 h; detection with biotinylated anti-VEGF-A or anti-PlGF antibodies and streptavidin-alkaline phosphatase, absorbance at 405 nm; selected wells pre-incubated with D16F7 or control mAb; both purified

- binding: binds
Substance: recombinant placenta growth factor (PlGF) homodimer (from UniProt P49763-2) (ligand)

Results are given in words; binding and its absence hold for the method and conditions named. Binding can be weak; no strength is given.
